In paper PMC11965567:
No constants are given. Whether binding was seen depends on the method and setting. Binding seen in cells or lysates may run through a third protein. These calls come from enrichment with a bait or labelling near it, and not all partners need be listed. A no says only that the protein was not detected with the bait.

T1: Thioredoxin-interacting protein (TXNIP), overexpressed in HCC-1954 cells, Q9H3M7
T1 chain: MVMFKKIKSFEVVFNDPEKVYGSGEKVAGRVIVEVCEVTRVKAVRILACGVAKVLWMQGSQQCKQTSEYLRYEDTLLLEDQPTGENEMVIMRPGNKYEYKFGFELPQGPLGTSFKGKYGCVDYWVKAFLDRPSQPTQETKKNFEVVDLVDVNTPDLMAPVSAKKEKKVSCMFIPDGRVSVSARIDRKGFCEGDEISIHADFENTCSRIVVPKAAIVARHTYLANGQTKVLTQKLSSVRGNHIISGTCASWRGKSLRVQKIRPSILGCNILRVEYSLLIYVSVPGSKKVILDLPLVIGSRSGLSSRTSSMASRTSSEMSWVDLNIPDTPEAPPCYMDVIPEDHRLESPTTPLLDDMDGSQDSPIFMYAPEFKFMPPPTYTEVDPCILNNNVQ

T2: Thioredoxin-interacting protein (TXNIP), endogenous (human (endogenous in MDA-MB-231 and T47D)), Q9H3M7
T2 chain: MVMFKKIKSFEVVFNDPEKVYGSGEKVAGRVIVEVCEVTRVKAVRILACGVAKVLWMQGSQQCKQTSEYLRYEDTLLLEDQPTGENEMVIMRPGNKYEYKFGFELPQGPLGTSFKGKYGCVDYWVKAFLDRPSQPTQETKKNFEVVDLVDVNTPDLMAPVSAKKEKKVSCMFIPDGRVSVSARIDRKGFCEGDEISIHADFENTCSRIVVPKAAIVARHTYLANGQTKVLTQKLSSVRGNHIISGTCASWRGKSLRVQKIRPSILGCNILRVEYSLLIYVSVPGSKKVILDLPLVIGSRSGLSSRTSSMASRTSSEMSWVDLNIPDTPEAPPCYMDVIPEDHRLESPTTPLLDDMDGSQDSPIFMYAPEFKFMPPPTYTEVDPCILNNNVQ


Experiments:
[1] = molecular target: T1, Thioredoxin-interacting protein …; assay: affinity purification with mass spectrometry; co-IP followed by mass spectrometry in TXNIP-KD MDA-MB-231 cells and TXNIP-OE HCC-1954 cells; cell lysate in IP lysis buffer, antibody or control IgG, sepharose agarose beads, three washes with lysis buffer; three independent experiments; conditions: remark: other sources report otherwise
[2] = molecular target: T2, Thioredoxin-interacting protein …; assay: as above; conditions: remark: other sources report otherwise

Row | binding [1] | binding [2] | Binder
1 | no binding | no binding | SLC2A1 (GLUT-1), endogenous, P11166 1-492 (protein) MEPSSKKLTGRLMLAVGGAVLGSLQFGYNTGVINAPQKVIEEFYNQTWVHRYGESILPTTLTTLWSLSVAIFSVGGMIGSFSVGLFVNRFGRRNSMLMMNLLAFVSAVLMGFSKLGKSFEMLILGRFIIGVYCGLTTGFVPMYVGEVSPTALRGALGTLHQLGIVVGILIAQVFGLDSIMGNKDLWPLLLSIIFIPALLQCIVLPFCPESPRFLLINRNEENRAKSVLKKLRGTADVTHDLQEMKEESRQMMREKKVTILELFRSPAYRQPILIAVVLQLSQQLSGINAVFYYSTSIFEKAGVQQPVYATIGSGIVNTAFTVVSLFVVERAGRRTLHLIGLAGMAGCAILMTIALALLEQLPWMSYLSIVAIFGFVAFFEVGPGPIPWFIVAELFSQGPRPAAIAVAGFSNWTSNFIVGMCFQYVEQLCGPYVFIIFTVLLVLFFIFTYFKVPETKGRTFDEIASGFRQGGASQSDKTPEELFHPLGADSQV
2 | no binding | no binding | NEDD4L, endogenous, Q96PU5 1-975 (protein) MATGLGEPVYGLSEDEGESRILRVKVVSGIDLAKKDIFGASDPYVKLSLYVADENRELALVQTKTIKKTLNPKWNEEFYFRVNPSNHRLLFEVFDENRLTRDDFLGQVDVPLSHLPTEDPTMERPYTFKDFLLRPRSHKSRVKGFLRLKMAYMPKNGGQDEENSDQRDDMEHGWEVVDSNDSASQHQEELPPPPLPPGWEEKVDNLGRTYYVNHNNRTTQWHRPSLMDVSSESDNNIRQINQEAAHRRFRSRRHISEDLEPEPSEGGDVPEPWETISEEVNIAGDSLGLALPPPPASPGSRTSPQELSEELSRRLQITPDSNGEQFSSLIQREPSSRLRSCSVTDAVAEQGHLPPPSAPAGRARSSTVTGGEEPTPSVAYVHTTPGLPSGWEERKDAKGRTYYVNHNNRTTTWTRPIMQLAEDGASGSATNSNNHLIEPQIRRPRSLSSPTVTLSAPLEGAKDSPVRRAVKDTLSNPQSPQPSPYNSPKPQHKVTQSFLPPGWEMRIAPNGRPFFIDHNTKTTTWEDPRLKFPVHMRSKTSLNPNDLGPLPPGWEERIHLDGRTFYIDHNSKITQWEDPRLQNPAITGPAVPYSREFKQKYDYFRKKLKKPADIPNRFEMKLHRNNIFEESYRRIMSVKRPDVLKARLWIEFESEKGLDYGGVAREWFFLLSKEMFNPYYGLFEYSATDNYTLQINPNSGLCNEDHLSYFTFIGRVAGLAVFHGKLLDGFFIRPFYKMMLGKQITLNDMESVDSEYYNSLKWILENDPTELDLMFCIDEENFGQTYQVDLKPNGSEIMVTNENKREYIDLVIQWRFVNRVQKQMNAFLEGFTELLPIDLIKIFDENELELLMCGLGDVDVNDWRQHSIYKNGYCPNHPVIQWFWKAVLLMDAEKRIRLLQFVTGTSRVPMNGFAELYGSNGPQLFTIEQWGSPEKLPRAHTCFNRLDLPPYETFEDLREKLLMAVENAQGFEGVD
